Paper PMC3930595
No constants are given. Whether binding was seen depends on the method and setting. Binding seen in cells or lysates may run through a third protein. These calls come from enrichment with a bait or labelling near it, and not all partners need be listed.

Molecular target: Slc1 (Ct043), type III secretion chaperone (Chlamydia trachomatis LGV serotype L2 strain 434/Bu (endogenous in EBs))
Assay: affinity purification with mass spectrometry; anti-Slc1 or anti-Mcsc antibodies (pre-immune serum as control) cross-linked to protein A/G resin; EB lysate in Pierce IP lysis buffer (25 mM Tris, 150 mM NaCl, 1 mM EDTA, 1% NP-40, 5% glycerol, pH 7.4), 4 h at 4°C; elution at pH 2.8; LC-MS/MS; three biological replicates

B1: late transcription unit B protein (ltuB, Ct080) (protein, UniProt Q46404 1-97)
chain: MKKRSSRKLAQVIGRKTGNYFPASIEGETKKEHKHHYSTASKEKESLRKRAKEFDVLVHSLLDKHVPQNSDQVLIFTYQNGFVETDFHNFGRYSVKL
B1 was tested, and the binding was “binds”.
